Experiment [1] has as its target Recombinant Msf 1-422 construct lacking amino acids 4-82 (Neisseria meningitidis strain H44/76). Nature of the experiment: ELISA; Msf constructs coated at 3 μM; biotinylated peptides (VA-26 or MV-14/GS-22) 1.5 μM in PBS overlaid 1 h at RT; detected with anti-biotin alkaline phosphatase antibody; both purified. (An ELISA detects its analyte on a solid surface through an enzyme-linked reagent.)

Experiment [2] has as its target Recombinant Msf fragment Msf 1-86 (strain H44/76) (Neisseria meningitidis strain H44/76). The experiment is described as above.
Experiment [3] deals with Recombinant Msf fragment Msf 197-422 (strain H44/76) (Neisseria meningitidis strain H44/76). Described as above.
The target of experiment [4] is Recombinant Msf fragment Msf 1-203 (strain H44/76) (Neisseria meningitidis strain H44/76). The description is as above.
Experiment [5] deals with Recombinant Msf fragment Msf 81-203 (strain H44/76) (Neisseria meningitidis strain H44/76). Described as above.
For experiment [6], the target named is Recombinant Msf fragment Msf 39-124 (strain H44/76) (Neisseria meningitidis strain H44/76). Described as above.
Experiment [7] deals with Recombinant Msf fragment Msf 1-422 (strain H44/76) (Neisseria meningitidis strain H44/76). In words: ELISA; competition: Msf 1-422 coated at 3 μM, aVn 74 nM overlaid in the presence of VA26 or a control peptide; bound aVn detected with anti-vitronectin; both purified.

Data on one molecule can be found in publication PMC4380367.

These are yes or no findings as the source states them, for the method shown. Binding calls can cover weak binding; strength is not graded here.

B1: Biotinylated synthetic peptide spanning human vitronectin residues 43-68 (peptide)
peptide: VTRGDVFTMPEDEYTVYDDGEEKNNA
modifications: biotinylated (position not given)
On to B1, for which the binding entry in experiment [1] is “binds weakly”; in experiment [2] it was “binds”; in experiment [3] it was “binds weakly”; in experiment [4], “binds”; in experiment [5] it was “binds weakly”; in experiment [6], “binds”. For the same molecule, the binding result in experiment [7] is reported as “binds”.
